Experimental data as given in the supplement of paper PMC4604168 (melanoma cell lines).
This is one part of the list. Single values are uncertain, as repeats are few or missing.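 Cells were imaged in 1,536-well plates, and nuclei stained with an antibody against cleaved PARP were counted against all DNA-stained nuclei to give the apoptosis fraction. Screening doses were chosen to leave most cells alive, and resting and induced cleaved-PARP levels differ strongly between cell lines.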

Tests used:
Experiment in all cases: cleaved PARP positive nuclei fraction relative to DMSO control; melanoma cells; higher = more apoptosis
Settings in all cases: library dose: low library concentration; 72 h
501Mel = tested on: 501Mel
A101D = tested on: A101D
A2058 = tested on: A2058
A375 = tested on: A375
C32 = tested on: C32
CBRC008 = tested on: CBRC008 (line from a melanoma biopsy)
CBRC014 = tested on: CBRC014 (line from a melanoma biopsy)
CBRC016 = tested on: CBRC016 (line from a melanoma biopsy)
CBRC017 = tested on: CBRC017 (line from a melanoma biopsy)
CBRC034 = tested on: CBRC034 (line from a melanoma biopsy)
COLO792 = tested on: COLO792
COLO800 = tested on: COLO800
COLO829 = tested on: COLO829
G361 = tested on: G361
IPC-298 = tested on: IPC-298
IST-MEL1 = tested on: IST-MEL1
LB2518-MEL = tested on: LB2518-MEL
LOXIMVI = tested on: LOXIMVI
MEL-HO = tested on: MEL-HO

Compound	cleaved PARP positive nuclei fraction (501Mel) [%]	cleaved PARP positive nuclei fraction (A101D) [%]	cleaved PARP positive nuclei fraction (A2058) [%]	cleaved PARP positive nuclei fraction (A375) [%]	cleaved PARP positive nuclei fraction (C32) [%]	cleaved PARP positive nuclei fraction (CBRC008) [%]	cleaved PARP positive nuclei fraction (CBRC014) [%]	cleaved PARP positive nuclei fraction (CBRC016) [%]	cleaved PARP positive nuclei fraction (CBRC017) [%]	cleaved PARP positive nuclei fraction (CBRC034) [%]	cleaved PARP positive nuclei fraction (COLO792) [%]	cleaved PARP positive nuclei fraction (COLO800) [%]	cleaved PARP positive nuclei fraction (COLO829) [%]	cleaved PARP positive nuclei fraction (G361) [%]	cleaved PARP positive nuclei fraction (IPC-298) [%]	cleaved PARP positive nuclei fraction (IST-MEL1) [%]	cleaved PARP positive nuclei fraction (LB2518-MEL) [%]	cleaved PARP positive nuclei fraction (LOXIMVI) [%]	cleaved PARP positive nuclei fraction (MEL-HO) [%]
C=C(c1ccc(C(=O)O)cc1)c1cc2c(cc1C)C(C)(C)CCC2(C)C [Bexarotene] + Nc1cccc2c1CN(C1CCC(=O)NC1=O)C2=O [lenalidomide] (first compound 2 µM, partner dose 1 µM)	139	101	67.7	232	81.5	171	107	169	148	68.6	191	93.1	49.9	126	58	64.8	98.1	59.2	25.9
CN1CCN(c2ccc3nc(-c4c(N)c5c(F)cccc5[nH]c4=O)[nH]c3c2)CC1 [Dovitinib] + O=C(O)c1ccc2c(c1)nc(Nc1cccc(Cl)c1)c1ccncc12 [CX4945] (first compound 0.1 µM, partner dose 0.4 µM)	96.2	48.7	203	229	84.1	77.5	102	95	138	191	197	127	123	171	94.3	104	358	155	116
Cc1cc(Nc2cc(N3CCN(C)CC3)nc(/C=C/c3ccccc3)n2)n[nH]1 + Nc1cccc2c1CN(C1CCC(=O)NC1=O)C2=O [lenalidomide] (first compound 0.04 µM, partner dose 1 µM)	124	92.4	65.5	174	78.2	148	93.3	213	83.2	141	152	103	127	44.5	81.5	178	123	56	79.6
O=C(O)c1ccc2c(c1)nc(Nc1cccc(Cl)c1)c1ccncc12 + C[C@]1(c2nc3c(C(N)=O)cccc3[nH]2)CCCN1 [Veliparib] (first compound 0.4 µM, partner dose 1.4 µM)	30.7	80.7	260	150	82.3	26.2	168	146	189	310	87.3	106	141	211	68.6	250	53.1	115	47.1
CC(C)C[C@H](NC(=O)[C@H](Cc1ccccc1)NC(=O)c1cnccn1)B(O)O [Bortezomib] + C#Cc1cccc(Nc2ncnc3cc(OCCOC)c(OCCOC)cc23)c1 [erlotinib] (first compound 0.001 µM, partner dose 0.8 µM)	272	866	359	113	88.4	964	260	428	719	452	39.4	178	213	6040	193	90.9	258	293	63
CCCS(=O)(=O)Nc1ccc(F)c(C(=O)c2c[nH]c3ncc(Cl)cc23)c1F + C[C@]1(c2nc3c(C(N)=O)cccc3[nH]2)CCCN1 [Veliparib] (first compound 0.08 µM, partner dose 1.4 µM)	74.3	47.6	227	177	94.9	109	109	162	120	29.6	65.2	168	214	143	98.6	234	112	83.8	68.2
CS(=O)(=O)CCNCc1ccc(-c2ccc3ncnc(Nc4ccc(OCc5cccc(F)c5)c(Cl)c4)c3c2)o1 [lapatinib] + Nc1nc(F)nc2c1ncn2[C@@H]1O[C@H](CO)[C@@H](O)[C@@H]1O [fludarabine] (first compound 0.8 µM, partner dose 0.2 µM)	9770	95.3	65.7	6920	69.2	112	109	34.7	120	25.7	67.7	128	112	130	133	32.6	103	48.7	39.3
Cc1cc(Nc2cc(N3CCN(C)CC3)nc(/C=C/c3ccccc3)n2)n[nH]1 + Nc1ccn([C@@H]2O[C@H](CO)[C@@H](O)C2(F)F)c(=O)n1 [gemcitabine] (first compound 0.04 µM, partner dose 0.0004 µM)	63.7	95.7	110	98.5	153	61.8	134	87.1	194	280	63.5	90.8	89.3	75.1	115	243	106	93.5	121
CN1CCN(c2ccc3nc(-c4c(N)c5c(F)cccc5[nH]c4=O)[nH]c3c2)CC1 [Dovitinib] + CC(=O)c1c(C)c2cnc(Nc3ccc(N4CCNCC4)cn3)nc2n(C2CCCC2)c1=O [palbociclib] (first compound 0.1 µM, partner dose 0.04 µM)	266	40.5	459	231	87.1	57.6	106	84.9	101	63	190	134	82.6	51.5	47.7	133	146	172	49.6
Cn1c(=O)n(-c2ccc(C(C)(C)C#N)cc2)c2c3cc(-c4cnc5ccccc5c4)ccc3ncc21 + Cn1c(Nc2ccc(C(F)(F)F)cc2)nc2cc(Oc3ccnc(-c4ncc(C(F)(F)F)[nH]4)c3)ccc21 [CHIR265] (first compound 0.004 µM, partner dose 0.08 µM)	2950	73.6	147	396	96.5	491	246	187	99.4	103	222	40.5	159	194	89.2	149	306	127	78
CS(=O)(=O)CCNCc1ccc(-c2ccc3ncnc(Nc4ccc(OCc5cccc(F)c5)c(Cl)c4)c3c2)o1 [lapatinib] + Cn1nnc2c(C(N)=O)ncn2c1=O [temozolomide] (first compound 0.8 µM, partner dose 2 µM)	72.7	30	53.2	83.5	324	73.7	101	98.4	80.1	63.8	80.2	111	169	71.1	84.3	137	190	30.6	131
Cc1cc(Nc2cc(N3CCN(C)CC3)nc(/C=C/c3ccccc3)n2)n[nH]1 + COCC[n+]1c2c(n(Cc3cnccn3)c1C)C(=O)c1ccccc1C2=O [YM155] (first compound 0.04 µM, partner dose 0.0004 µM)	91.8	48.7	103	139	92.8	162	93.8	106	100	107	87	93.5	89.2	59.6	45.5	211	112	200	121
CS(=O)(=O)CCNCc1ccc(-c2ccc3ncnc(Nc4ccc(OCc5cccc(F)c5)c(Cl)c4)c3c2)o1 [lapatinib] + CC(=O)c1c(C)c2cnc(Nc3ccc(N4CCNCC4)cn3)nc2n(C2CCCC2)c1=O [palbociclib] (first compound 0.8 µM, partner dose 0.04 µM)	122	144	109	203	98.4	38.5	104	104	120	35.8	135	66.9	75.1	66.6	58	148	65.4	48.1	169
Cn1c(=O)n(-c2ccc(C(C)(C)C#N)cc2)c2c3cc(-c4cnc5ccccc5c4)ccc3ncc21 + CCCS(=O)(=O)Nc1ccc(F)c(C(=O)c2c[nH]c3ncc(Cl)cc23)c1F [PLX4720] (first compound 0.004 µM, partner dose 0.08 µM)	95.2	253	128	161	80.5	30	97.8	43.2	94.1	52.3	126	105	133	133	66	268	99.2	209	104
O=C(O)[C@@H]1[O][Sb](=[O])([O][Sb]2(=[O])[O][C@H]([C@H](O)CO)[C@H](O)[C@H](C(=O)O)[O]2)[O][C@H]([C@H](O)CO)[C@@H]1O (some centres undefined) [stibogluconate] + C=CCNC1=C2C[C@@H](C)C[C@H](OC)[C@H](O)[C@@H](C)/C=C(\C)[C@H](OC(N)=O)[C@@H](OC)/C=C\C=C(/C)C(=O)NC(=CC1=O)C2=O [Tanespimycin] (first compound 2 µM, partner dose 0.002 µM)	97	38.6	31.2	46.5	92.4	23.9	74.8	153	89.2	73.2	44.8	97.3	109	135	81.8	26.8	110	81.7	89.3
CO[C@H]1C[C@@H]2CC[C@@H](C)[C@@](O)(O2)C(=O)C(=O)N2CCCC[C@H]2C(=O)O[C@H]([C@H](C)C[C@@H]2CC[C@@H](OCCO)[C@H](OC)C2)CC(=O)[C@H](C)/C=C(\C)[C@@H](O)[C@@H](OC)C(=O)[C@H](C)C[C@H](C)/C=C/C=C/C=C/1C [everolimus] + Nc1cccc2c1CN(C1CCC(=O)NC1=O)C2=O [lenalidomide] (first compound 0.02 µM, partner dose 1 µM)	991	223	122	607	98.6	162	98.7	143	110	126	144	66.6	59.7	184	119	37.3	164	58.1	83.1

Single records (already shown). Order of values: cleaved PARP positive nuclei fraction (501Mel) [%]	cleaved PARP positive nuclei fraction (A101D) [%]	cleaved PARP positive nuclei fraction (A2058) [%]	cleaved PARP positive nuclei fraction (A375) [%]	cleaved PARP positive nuclei fraction (C32) [%]	cleaved PARP positive nuclei fraction (CBRC008) [%]	cleaved PARP positive nuclei fraction (CBRC014) [%]	cleaved PARP positive nuclei fraction (CBRC016) [%]	cleaved PARP positive nuclei fraction (CBRC017) [%]	cleaved PARP positive nuclei fraction (CBRC034) [%]	cleaved PARP positive nuclei fraction (COLO792) [%]	cleaved PARP positive nuclei fraction (COLO800) [%]	cleaved PARP positive nuclei fraction (COLO829) [%]	cleaved PARP positive nuclei fraction (G361) [%]	cleaved PARP positive nuclei fraction (IPC-298) [%]	cleaved PARP positive nuclei fraction (IST-MEL1) [%]	cleaved PARP positive nuclei fraction (LB2518-MEL) [%]	cleaved PARP positive nuclei fraction (LOXIMVI) [%]	cleaved PARP positive nuclei fraction (MEL-HO) [%]
Cc1cc(Nc2cc(N3CCN(C)CC3)nc(/C=C/c3ccccc3)n2)n[nH]1 + COCC[n+]1c2c(n(Cc3cnccn3)c1C)C(=O)c1ccccc1C2=O [YM155] (first compound 0.04 µM, partner dose 0.0004 µM) reads 91.8	48.7	103	139	92.8	162	93.8	106	100	107	87	93.5	89.2	59.6	45.5	211	112	200	121
CS(=O)(=O)CCNCc1ccc(-c2ccc3ncnc(Nc4ccc(OCc5cccc(F)c5)c(Cl)c4)c3c2)o1 [lapatinib] + Nc1nc(F)nc2c1ncn2[C@@H]1O[C@H](CO)[C@@H](O)[C@@H]1O [fludarabine] (first compound 0.8 µM, partner dose 0.2 µM) reads 9770	95.3	65.7	6920	69.2	112	109	34.7	120	25.7	67.7	128	112	130	133	32.6	103	48.7	39.3
